These results are taken from PubChem BioAssay AID1504 (NMMLSC, 2009).

Structures are written as SMILES. The list shows a part of the results.

Experiment in all cases: small molecules altering RGS protein interactions with GNAO1 – biochemical, multiplexed beads, flow cytometry, RGS4/7/8/16/19, primary screen (AID 1504);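 further: fluorescently labeled Galpha-o bound to GDP with aluminium fluoride binding biotinylated RGS beads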
Assay [1] has as its target Regulator of G-protein signaling 16 (Homo sapiens) (UniProt O15492). Particulars: multiplexed bead flow cytometry, measured here: RGS16 interaction, at 10 µM.
Assay [2] deals with Regulator of G-protein signaling 19 (Homo sapiens) (UniProt P49795). Particulars: multiplexed bead flow cytometry, measured here: RGS19 interaction, at 10 µM.
The target of assay [3] is Regulator of G-protein signaling 7 (Homo sapiens) (UniProt P49802). Particulars: multiplexed bead flow cytometry, measured here: RGS7 interaction, at 10 µM.
The target in assay [4] is Regulator of G-protein signaling 8 (Homo sapiens) (UniProt P57771). Particulars: multiplexed bead flow cytometry, measured here: RGS8 interaction, at 10 µM.

Turning to `c1ccc(-c2nn[nH]n2)c(-c2nn[nH]n2)c1`, in assay [1], the RGS16–Galpha-o binding response is -1.45%. The same molecule had an RGS19–Galpha-o binding response in assay [2] of 156%. The molecule further registered an RGS7–Galpha-o binding response in assay [3] of 68.5%. The RGS8–Galpha-o binding response in assay [4] was 48.7%.

Consider `Nc1cccc2c([As](=O)(O)O)cccc12`, for which, in assay [1], the RGS16–Galpha-o binding response came out at 27.8%. The molecule also had an RGS19–Galpha-o binding response in assay [2] of 145%. Also, in assay [3], the RGS7–Galpha-o binding response was 318%. In assay [4], this molecule registered an RGS8–Galpha-o binding response of 49.9%.
